Screen size: about 78,000 compounds; about 1,800 (2.3%) were called active. The inconclusive results got no clear call from the source; some entries with a clear call stand among them for comparison. Cut-off read from the data, not from the text of the source: active = inhibition above about 30%; inconclusive = mostly about 10% to 28%; inactive = weaker than that.
What follows are molecules tested against Interleukin-1 receptor-like 1 (Homo sapiens) (UniProt Q01638) (assay: blocks human ST2 binding to IL-33, primary screen, biochemical, AlphaLISA (AID 1259354)). Conditions: AlphaLISA ST2-Fc/biotin-IL-33 interaction, 1 h; at 17 µM, stronger effect = higher value.

Chains of the proteins cited; added tags and fusions are not shown. Lines headed by an entry give the natural chain unless they say otherwise; changes in a name come on top.
UniProt Q01638: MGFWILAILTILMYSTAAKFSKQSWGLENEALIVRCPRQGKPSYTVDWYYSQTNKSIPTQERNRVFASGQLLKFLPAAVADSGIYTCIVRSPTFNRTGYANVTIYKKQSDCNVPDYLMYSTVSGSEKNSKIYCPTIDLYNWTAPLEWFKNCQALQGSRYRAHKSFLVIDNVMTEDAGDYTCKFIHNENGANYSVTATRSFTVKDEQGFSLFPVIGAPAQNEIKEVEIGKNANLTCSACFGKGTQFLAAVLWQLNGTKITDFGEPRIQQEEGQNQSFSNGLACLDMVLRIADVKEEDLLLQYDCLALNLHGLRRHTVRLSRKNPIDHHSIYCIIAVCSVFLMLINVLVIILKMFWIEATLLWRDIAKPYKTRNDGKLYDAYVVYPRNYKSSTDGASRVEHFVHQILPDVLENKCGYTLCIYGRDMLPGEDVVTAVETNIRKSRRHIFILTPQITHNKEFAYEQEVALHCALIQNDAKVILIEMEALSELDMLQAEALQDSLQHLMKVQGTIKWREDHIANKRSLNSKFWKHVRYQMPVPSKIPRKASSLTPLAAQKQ

| Compound | inhibition |
| --- | --- |
| COc1cc(S(=O)(=O)N2CCN(c3ccccc3F)CC2)c(C)cc1C | inconclusive: 10% |
| O=C(Nc1nc(-c2ccccc2)cs1)c1ccc(S(=O)(=O)N2CCc3ccccc3C2)cc1 | inconclusive: 10% |
| O=C(Nc1ccccc1[N+](=O)[O-])c1cc(Br)ccc1Cl | inconclusive: 27% |
| Cc1nc2ccccc2c2c1C(=O)N(C1CCCCCCC1)C2=O | inconclusive: 19% |
| COc1ccc(O)c(C2=Nc3ccccc3N=C(c3ccc(F)cc3)C2)c1 | active: 32% |
| COc1ccc(NC(=O)NC[C@H]2O[C@@H](CO)[C@@H](O)[C@H]2N2CCOCC2)cc1 | inactive |
| CC(C)NC(=O)[C@@H](C)C1CC[C@@]2(C)CC[C@H](NC(=O)c3ccc(C#N)cc3)[C@@H](C)[C@@H]2[C@H]1O (some centres undefined) | inactive |
| COc1ccc(/C=c2\sc3n(c2=O)CN(c2ccc(C)cc2)CN=3)cc1OC | inconclusive: 21% |
| Cc1ccc(CNC(=O)Cc2c(C(=O)O)[nH]c3ccccc23)o1 | inactive |
| N#Cc1ccc(Oc2ccc(C(=O)O)cc2)cc1 | inactive |
| Cc1cccc(C2=N/C(=C\C=C\c3ccccc3)C(=O)O2)c1 | active: 37% |
| Nc1nnc(SCC(=O)N2CCc3ccccc32)s1 | inactive |
| O=C(C1=Cc2ccccc2OC=C1)N1C[C@H]2CC=CC[C@H]2C1 | inconclusive: 13% |
| O=Nc1c(O)n(CN2CCCCC2)c2ccccc12 | inconclusive: 14% |
| CCn1nc(C(=O)O)c2c1CCC(NCCc1nc(C)c3c(n1)CCCC3)C2 (centres undefined) | inconclusive: 19% |
| CC(C)NC(=O)NC[C@H]1O[C@@H](CC(=O)N2CCc3ccccc32)[C@H](O)[C@@H]1O | inconclusive: 10% |
| CN(C)Cc1ccccc1C(O)(c1ccccc1)c1ccccc1 | inconclusive: 13% |
| N#Cc1cc2c(nc1SCC(=O)Nc1ccccc1C(=O)O)CCC2 | inconclusive: 10% |
| O=C(NC1CCCC1)C1c2ccccc2C(=O)N1CCc1ccccc1 (centres undefined) | inactive |
| Cc1ccc(OCC(=O)Nc2ccncc2)cc1C | inactive |
| CCOc1ccc(C(=O)Nc2ccc(Nc3nc(C)cc(Nc4ccc(C)cc4)n3)cc2)cc1 | inconclusive: 11% |
| COc1ccc(CCN2C(=O)O[C@@H]3CN(c4cnccn4)C[C@@H]32)cc1 | inactive |
| CCOc1ccc(S(=O)(=O)N2CCC(n3c(Cc4ccccc4)nc4cccnc43)CC2)cc1 | inconclusive: 10% |
| COc1ccc(C(=O)N(c2ccc(F)cc2)C2C=CS(=O)(=O)C2)cc1OC (centres undefined) | inconclusive: 14% |

Some values from the entries so far:
COc1cc(S(=O)(=O)N2CCN(c3ccccc3F)CC2)c(C)cc1C – inhibition: inconclusive: 10%
CC(C)NC(=O)[C@@H](C)C1CC[C@@]2(C)CC[C@H](NC(=O)c3ccc(C#N)cc3)[C@@H](C)[C@@H]2[C@H]1O (some centres undefined) – inhibition: inactive

(list continues)

| Compound | inhibition |
| --- | --- |
| CCOc1ccc2nc(SCC(=O)NC3CC3)sc2c1 | inconclusive: 11% |
| CCOC(=O)N1CCN(Cc2cccc([N+](=O)[O-])c2)CC1 | inconclusive: 12% |
| Cc1cccnc1N=Cc1nc(-c2ccc(Br)cc2)oc1O | inconclusive: 25% |
| O=C(c1ccccc1)c1cncc(Br)c1 | inconclusive: 12% |
| Nc1nncn1C(=O)COc1ccc(Cl)cc1Br | inconclusive: 22% |
| COc1ccc(Cl)cc1NS(=O)(=O)c1cccc2cccnc12 | inconclusive: 23% |
| O=C(CN1CCN(Cc2ccccc2F)C1=O)NCCC1=CCCCC1 | inactive |
| Cc1sc(N2C(=O)C3CC=C(Cl)CC3C2=O)c(C#N)c1C (centres undefined) | inconclusive: 22% |
| O=C(O)CCCNC(=O)/C(=C/c1ccc2c(c1)OCO2)NC(=O)c1ccc(Br)cc1 | inactive |
| COc1cccc(NC(=O)c2sc(C)nc2-c2ccc([N+](=O)[O-])cc2)c1 | inconclusive: 26% |
| CC(C)c1nc2cc(C(=O)NCC(C)(C)N3CCOCC3)ccc2o1 | inactive |
| O=C(C1CCN(S(=O)(=O)c2cccc3cccnc23)CC1)N1CCCC1 | inconclusive: 13% |
| CCCC(NC(=O)c1ccc(C(C)=O)cc1)c1ccccc1 (centres undefined) | inconclusive: 11% |
| COc1cccc(N2CCN(CC3CC4C=CC3C4)CC2)c1 (centres undefined) | inconclusive: 23% |
| Cc1c(Cl)cccc1N=Cc1nc(-c2ccc(Br)cc2)oc1O | inconclusive: 11% |
| Cc1ccc2c(C)c(C(=O)N3CCC4(CN(C)C(=O)O4)C3)oc2c1 (centres undefined) | inconclusive: 26% |
| CCOc1cc(/C=C2\SC(N)=NC2=O)ccc1OCc1ccc(Br)cc1 | inconclusive: 16% |
| COc1ccccc1-n1cnc2cc(NCc3ccc(N(C)C)cc3)ccc21 | inconclusive: 23% |
| Cc1cc(I)cc2c1NC(c1ccc(F)cc1)C1CC=CC21 (centres undefined) | inconclusive: 20% |
| CCCCN1C(=O)S/C(=C\c2c(NCCCO)nc3ccccn3c2=O)C1=O | inconclusive: 20% |
| CCCCN(C)CCNC(=O)c1c[nH]n2c(=O)c(Cc3ccccc3F)c(C)nc12 | inactive |
| CN1C(=O)C2(CCN(C(=O)c3cccc4c3ccn4C)CC2)c2ccccc21 | inconclusive: 17% |
| Cc1c(C(=O)Nc2cccc([N+](=O)[O-])c2)csc1-c1ccccc1 | inconclusive: 16% |
| C/C=C/C=C/C(=O)c1cc(C)c(O)c(C)c1O | inconclusive: 13% |

| Compound | inhibition |
| --- | --- |
| CCCCOC(=O)CSC1=C(C#N)C(c2sccc2C)CC(=O)N1 (centres undefined) | inactive |
| COC(=O)[C@@H]1C[C@@H](N(C)C)CN1C(=O)c1ncccc1OC | inconclusive: 11% |
| CCOC(=O)N1CCN(CCC(=O)Nc2cccc(Br)c2)CC1 | inconclusive: 13% |
| COc1ccc(OC)c(/C=c2\sc3nnc(-c4ccccc4C)n3c2=O)c1 | inconclusive: 16% |
| Oc1oc(-c2ccc(Br)cc2)nc1C=Nc1cccnc1 | inconclusive: 11% |
| CCOC(=O)N1CCN(C2CCCN(C(=O)c3ccc(=O)[nH]c3)C2)CC1 (centres undefined) | inactive |
| COc1ccc(NC(=O)CCC2CCCN(C(=O)c3cc(C)nn3C)C2)cc1Cl (centres undefined) | inactive |
| CN1C2CCC1CC(OC(=O)C(CO)c1ccccc1)C2 (centres undefined) | inconclusive: 10% |
| Fc1ccccc1Cc1noc(CN2CCC(Oc3ccccc3F)CC2)n1 | inactive |
| Cc1ccsc1-c1cn(C(CO)Cc2ccc(Cl)cc2)nn1 (centres undefined) | inconclusive: 13% |
| O=C(C=C(O)c1ccccc1)C(=O)C=C(O)c1ccccc1 | inconclusive: 12% |
| COc1ccc(NS(=O)(=O)c2cc(Br)cc3c2N(C(C)=O)C(C)C3)c(OC)c1 (centres undefined) | inactive |
| CCCN(CCC)S(=O)(=O)c1ccc(C(=O)N2CCN(C)CC2)cc1 | inconclusive: 10% |
| COc1cc(NC(=O)CCC2CCCN(C(=O)CSC)C2)cc(OC)c1 (centres undefined) | inactive |
| CN(Cc1nc(C2CC2)no1)c1nccc(CCC(F)(F)F)n1 | inconclusive: 23% |
| CC1(C)CC(CCC(=O)Nc2nncs2)C(=O)O1 (centres undefined) | inconclusive: 19% |
| COc1ccc(OC)c(C2C(=C(O)c3ccc(Cl)cc3)C(=O)C(=O)N2Cc2cccnc2)c1 (centres undefined) | inconclusive: 10% |
| CCCOC(=O)C1=C(C)NC2=C(C(=O)C(C(=O)OC)C(C)C2)C1c1cc(OC)ccc1OC (centres undefined) | inactive |
| COc1cc(OC)c(-c2nc(-c3ccsc3)c(-c3ccccc3)[nH]2)cc1OC | inconclusive: 19% |
| COc1ccc(N2CCN(CCCNS(=O)(=O)c3cccc4cccnc34)CC2)cc1 | inconclusive: 13% |
| O=[N+]([O-])c1ccc(Cl)c(N=Cc2nc(-c3ccc(Cl)cc3)oc2O)c1 | inconclusive: 11% |
| COc1ccccc1-n1cc(C(=O)N2CCc3c(nc[nH]c3=O)C2)cn1 | inconclusive: 18% |
| O=C(CSc1nc2c(c(=O)n1-c1ccccc1)SCC2)NCCc1ccccc1 | inconclusive: 12% |
| Cc1ccc(NC(=O)Cn2c(-c3ccc4c(c3)OCO4)cn(-c3ccccc3)c2=O)cc1 | active: 31% |

Gathered by group, the compounds so far containing an aryl thioether with sulfur outside any ring (4)

| Compound | inhibition |
| --- | --- |
| Nc1nnc(SCC(=O)N2CCc3ccccc32)s1 | inactive |
| N#Cc1cc2c(nc1SCC(=O)Nc1ccccc1C(=O)O)CCC2 | inconclusive: 10% |
| CCOc1ccc2nc(SCC(=O)NC3CC3)sc2c1 | inconclusive: 11% |
| O=C(CSc1nc2c(c(=O)n1-c1ccccc1)SCC2)NCCc1ccccc1 | inconclusive: 12% |

Later entries

| Compound | inhibition |
| --- | --- |
| N#Cc1c2c(c(NCCCO)n3c1nc1ccccc13)CCC2 | active: 31% |
| CN1C(N)=NC(=O)/C1=C/c1ccc(Cl)cc1Cl | inconclusive: 11% |
| CN(Cc1cccc(C(=O)Nc2cn(C)nn2)c1)CC1Cc2ccccc2O1 (centres undefined) | inconclusive: 15% |
| COc1ccc(CN(Cc2cnn(C)c2)CC(C)C)cn1 | inconclusive: 15% |
| CCOCc1cn(CC(=O)c2ccc([N+](=O)[O-])cc2)c(C)nc1=N | inconclusive: 18% |
| Cc1ccc(N=Cc2cc(Cl)cc([N+](=O)[O-])c2O)cc1Cl | inconclusive: 10% |
| Cc1nc(N2CCC(C)CC2)c2c(C)c(C(=O)N3CCN(Cc4ccccc4)CC3)sc2n1 | inconclusive: 11% |
| Clc1ccc(CSCCc2ccccn2)cc1 | inconclusive: 21% |
| Cn1c(=O)c2c(nc(Oc3ccc(Cl)cc3)n2Cc2cccc(F)c2)n(C)c1=O | inactive |
| CCN1CCN(CCCNC(=O)C2CCN(c3ccc(-c4cccs4)nn3)CC2)CC1 | inactive |
| Cc1ccc(-n2ncc3c2CC(C)(C)CC3NC(=O)CCc2ccc3c(c2)OCO3)cc1 (centres undefined) | inconclusive: 13% |
| Cc1[nH]c2ccccc2c1SCCNC(=O)c1cc(Cl)ccc1Cl | inconclusive: 14% |
| COc1cc2c3c(c1)C(C)CC(C)(C)N3C(=O)C2=O (centres undefined) | active: 40% |
| CCCCN(C)c1nc(C)nc2c1sc1nc3c(cc12)COC(C)(C)C3 | inconclusive: 13% |
| CCn1cc(-c2c(-c3ccccc3)ncn2Cc2ccc3nonc3c2)c(C)n1 | inconclusive: 21% |
| O=C(NC1CCCCCCC1)c1ccc2nc3cc(Cl)ccc3c(=O)n2c1 | inactive |
| Nc1nc2n(n1)C(c1ccc(F)cc1)CC(c1ccccc1Cl)N2 (centres undefined) | inconclusive: 11% |
| COc1ccc(N(C(=O)Cn2nnnc2N)C2(C(=O)Nc3c(C)cccc3C)CCCCC2)cc1 | inactive |
| CCN(CC)C(=O)c1cn(CC(C)C)c(=O)c2c1c1ccccc1n2C | inactive |
| Cc1ccccc1N=c1oc2ccccc2cc1C(=O)Nc1ccccc1 | inconclusive: 16% |
| CCC(=O)N1c2ccc(S(=O)(=O)N3CCCCC3C)cc2CC1C (centres undefined) | inconclusive: 10% |
| O=C(CSc1cccc(-c2ccccc2)n1)c1cccs1 | inactive |

From PubChem BioAssay AID1259354 (Paczesny and Yang Labs, IUPUI and University of Michigan, 2018)
